# The whole screen tested about 340,000 compounds, of which about 4,500 (1.3%) were called active. Inconclusive means that the source gave no clear call. Such entries were picked first, then a sample of the others. Calls follow the shape of the dose curve; as a rule, active = well fitted inhibition curve with a large enough effect; inconclusive = small, poorly fitted or top-dose-only effect, or another doubt; inactive = no such curve, though single readings can be large or run the other way. Potencies of inconclusive entries are doubtful fits and often do not repeat.
# Target: DNA polymerase beta (Homo sapiens) (UniProt P06746)
# Assay: qHTS Assay for Inhibitors of DNA Polymerase Beta
# Details: Pol beta primer extension/strand displacement, fluorescence kinetic; series mostly up to 114 µM
# Outline: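 Human Pol beta at 10 nM; strand-displacement substrate 50 nM final. Compound exposure 15 min at room temperature before start, reaction 10 min at room temperature.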
# Potency is read from the fitted curve at half-maximal effect.
row,Compound,Potency
1,Cc1ccccc1CSc1ccc2nnc(-c3ccccn3)n2n1,"inconclusive: 0.158 µM [inhibitor, full curve, poor fit]"
2,COc1ccc(CNC(=O)COC(=O)Cc2ccsc2)cc1,inactive
3,O=C(CSc1nc2c(oc3ccccc32)c(=O)n1-c1ccccc1)Nc1ccc(F)c(Cl)c1,inactive
4,COc1ccc(OC)c(NC(=O)C2=C(C)C(=O)OC23CCN(C(C)C)CC3)c1,"inconclusive: 89.1 µM [inhibitor, single point]"
5,O=C(CSc1nc2ccccc2c(=O)n1C1CC1)NCc1ccccc1,"inconclusive: 31.6 µM [inhibitor, partial curve]"
7,CCc1ccc(-c2ccc(SCC(=O)Nc3nnc(C)s3)nn2)cc1,active: 39.8 µM
8,Cc1ccc(C)c(N2CCN(C(=O)Cn3nc(C)c4sc5ccccc5c4c3=O)CC2)c1,inactive
9,Cc1cc(C)c(NC(=O)CSc2nc3c(c(=O)n2C)SC(C)C3)c(C)c1 (stereo not drawn),"inconclusive: 100 µM [inhibitor, single point]"
10,Cc1ccc2occ(/C=N/O)c(=O)c2c1,inactive
11,Cc1oc2ccc(O)c(CN3CCCCCC3)c2c1C(=O)Nc1cccc(C(F)(F)F)c1,inactive
12,CCN1CCc2c(sc(NC(=O)c3ccc(S(=O)(=O)N(CC)c4ccccc4)cc3)c2C(N)=O)C1,"inconclusive: 28.2 µM [inhibitor, single point]"
13,CC(C)c1nc2sc3c(NCc4ccccc4)ncnc3c2c2c1COC(C)(C)C2,"inconclusive: 89.1 µM [inhibitor, single point]"
14,Cc1ccc(-n2nc(C)c3c(C(=O)NCCc4ccc(S(N)(=O)=O)cc4)cc(C)nc32)cc1,"inconclusive: 25.1 µM [inhibitor, full curve]"
15,COc1ccccc1OCC(=O)c1[nH]c(C)c(C(C)=O)c1C,"inconclusive: 50.1 µM [inhibitor, partial curve]"
16,Oc1ccc(/C=N/N=C/c2ccc(O)cc2)cc1,inactive
17,CCCNC(=O)c1ccc2c(=O)n(Cc3ccco3)c(=S)[nH]c2c1,"inconclusive: 35.5 µM [inhibitor, partial curve]"
18,COC(=O)c1sccc1NC(=O)/C=C\c1ccc(Cl)cc1Cl,"inconclusive: 89.1 µM [inhibitor, single point]"
19,CCS(=O)(=O)Nc1ccc(C2=NN(S(=O)(=O)c3ccc(F)cc3)C(c3ccco3)C2)cc1 (stereo not drawn),"inconclusive: 3.55 µM [inhibitor, full curve, poor fit]"
20,O=S1(=O)CC(O)C(N2CCCCC2)C1 (stereo not drawn),"inconclusive: 39.8 µM [inhibitor, single point]"
21,CNC(=O)CCC(=O)Nc1ccc(C)cc1,"inconclusive: 28.2 µM [inhibitor, single point]"
22,CC(NC(=O)C1CCCC1)c1ccc(Br)cc1 (stereo not drawn),"inconclusive: 39.8 µM [inhibitor, single point]"
23,CN(C)C(=O)c1ccc(-c2cc(C(F)(F)F)n(C)n2)s1,inactive
24,COc1ccccc1CNC(=O)c1cc(S(=O)(=O)N2CCCC(C)C2)cn1C (stereo not drawn),inactive
25,CCc1ccc(NC(=O)CC2C(=O)N(c3ccc(F)cc3)C(=O)N2Cc2ccc(F)cc2)cc1 (stereo not drawn),inactive

row,Compound,Potency
1,O=C(Nc1cccnc1)c1cc2c(ccc3ccccc32)o1,active: 31.6 µM
2,CCS(=O)(=O)N1Cc2ccccc2CC1C(=O)Nc1ncc(C)s1 (stereo not drawn),inactive
3,CCCC[n+]1ccc(-c2nc3ccc([N+](=O)[O-])cc3[nH]2)cc1,"inconclusive: 50.1 µM [inhibitor, single point]"
5,CCc1cc2cc(C(=O)Nc3ccc(F)cc3)sc2s1,active: 56.2 µM
6,O=C(O)c1cccc(OCCN2CCCC2=O)c1,"inconclusive: 89.1 µM [inhibitor, single point]"
7,Nc1ccc(Nc2ccccc2N)cc1,inactive
8,COc1ccc(/C=N/NC(=O)C(O)(c2ccccc2)c2ccccc2)cc1OC,active: 14.1 µM
9,CC(C)(C)c1ccc(C(=O)Cn2nc(C(=O)O)c3ccccc3c2=O)cc1,"inconclusive: 70.8 µM [inhibitor, partial curve, poor fit]"
10,NC(=O)CC[C@@H]1NC(=O)[C@H](CO)NC(=O)c2cc([N+](=O)[O-])cc(I)c2NCCCC[C@@H](C(N)=O)NC(=O)[C@H](Cc2ccc(O)cc2)NC1=O,inactive
11,O=C(O)Cc1cn(Cc2ccc(F)cc2)c2ccccc12,inactive
12,CCCN(Cc1cccs1)C(=O)Nc1ccc(Br)c(C)c1,"inconclusive: 89.1 µM [inhibitor, single point]"
13,Cc1cc(/C=C2\SC(=S)NC2=O)c(C)n1-c1ccccc1,"inconclusive: 35.5 µM [inhibitor, partial curve]"
14,O=C(CCn1cccn1)Nc1cccc(C(F)(F)F)c1,"inconclusive: 89.1 µM [inhibitor, single point]"
15,Cc1cc(C(F)(F)F)nc(SCc2ccc(C(=O)O)o2)n1,active: 39.8 µM
16,O=C(O)c1ccccc1C1=Nc2ccc(O)cc2Oc2cc(O)ccc21,active: 50.1 µM
17,CCc1ccc(CN(C)C(=O)c2cc(COc3c(F)cccc3F)on2)cc1,"inconclusive: 79.4 µM [inhibitor, single point]"
18,Cc1ccc(-n2nc3ccc(NC(=O)/C=C/c4ccco4)cc3n2)cc1,active: 31.6 µM
19,CC(C)c1ccccc1NC(=S)NCc1ccncc1,"inconclusive: 100 µM [inhibitor, single point]"
20,COc1ccc(CCNC(=O)CSc2nnc(CNc3ccc(Cl)cc3)o2)cc1OC,"inconclusive: 35.5 µM [inhibitor, single point]"
21,Cc1ccc(C)n1-c1ccc(C(=O)NCC2CCCO2)cc1 (stereo not drawn),active: 39.8 µM
22,CCOc1cc(-c2ccc(OC(=O)c3ccc(Cl)cc3)c(OC)c2)cc(=O)c2c(C)oc(C)c12,"inconclusive: 89.1 µM [inhibitor, single point]"
23,Oc1c(C(c2ccc(Cl)cc2)N2CCCC2)sc2nc(-c3ccco3)nn12 (stereo not drawn),inactive
24,CCOc1ccccc1C(=O)NCC(c1ccc(N(C)C)cc1)N1CCc2ccccc21 (stereo not drawn),inactive
25,CCCn1c2ccccc2c2nnc(SCCN3CCOCC3)nc21,"inconclusive: 89.1 µM [inhibitor, single point]"

row,Compound,Potency
1,O=C(Cc1ccc(NC(=O)N2CCCCc3ccccc32)cc1)Nc1ccccc1Br,inactive
2,Cc1c(C(=O)O)c(C(=O)O)nc2ccc(N3CCOCC3)cc12,"inconclusive: 15.8 µM [inhibitor, single point]"
3,COc1ccc(C(=O)C(OC(=O)c2ccccc2Cl)c2ccccc2)cc1 (stereo not drawn),"inconclusive: 39.8 µM [inhibitor, partial curve, poor fit]"
4,CCCCN(CC)S(=O)(=O)c1ccc(C(=O)Nc2nnc(-c3cccs3)o2)cc1,"inconclusive: 50.1 µM [inhibitor, partial curve]"
5,CCC(=O)c1cn(CC(=O)Nc2ccccc2Cl)c2ccccc12,"inconclusive: 4.47 µM [inhibitor, full curve]"
6,COc1cccc(NC(=O)CSc2nc3ccccc3c3nc4ccccc4n23)c1,"inconclusive: 7.08 µM [inhibitor, full curve, poor fit]"
7,Cn1c(CCN2CCN(c3ccccn3)CC2)nc2cc(NS(=O)(=O)c3ccc(Cl)cc3)ccc21,"inconclusive: 0.141 µM [inhibitor, full curve, poor fit]"
8,COc1ccc(Sc2ccccc2CN(C)C)cc1OC,inactive
9,Cc1ccc(C2=NNC(c3cccc(F)c3)S2)cc1 (stereo not drawn),"inconclusive: 17.8 µM [inhibitor, full curve, poor fit]"
10,CC(C)OP(C)(=O)CN1CCN(CP(C)(=O)OC(C)C)CC1 (stereo not drawn),"inconclusive: 89.1 µM [inhibitor, single point]"
11,O=C(Cc1cccs1)Nc1ccc(N2CCOCC2)cc1,active: 25.1 µM
12,CCOc1ccc(S(=O)(=O)NCCc2csc3nc(-c4cccc(C)c4)nn23)cc1,inactive
13,Cc1ccc(C(=O)Nc2nnc(S(=O)(=O)N3CCCc4ccccc43)s2)cc1,"inconclusive: 100 µM [inhibitor, single point]"
14,Cc1cccc(CSc2ccc3nnc(CCNS(=O)(=O)c4ccccc4)n3n2)c1,inactive
15,O=C(N/N=C/c1ccc([N+](=O)[O-])o1)c1cn2ccc3ccccc3c2n1,"inconclusive: 63.1 µM [inhibitor, single point]"
16,O=C(Nc1ccc(OC(F)(F)F)cc1)C(NS(=O)(=O)c1cccc2nsnc12)c1ccccc1 (stereo not drawn),inactive
17,O=C(CSc1ncc2c(n1)-c1cc(Cl)ccc1N(Cc1ccccc1)S2(=O)=O)NCc1ccccc1,"inconclusive: 28.2 µM [inhibitor, single point]"
18,Cc1ccccc1C(=O)NC1(C(F)(F)F)C(=O)Nc2c1c(=O)[nH]c(=O)n2CCc1ccccc1 (stereo not drawn),inactive
19,Cc1cc(C)c(OCC(=O)Nc2ccc(N3CCOCC3)cc2)c(Br)c1,"inconclusive: 0.794 µM [inhibitor, full curve, poor fit]"
20,Cc1nc2c(C(=O)NCCc3ccccc3)c[nH]n2c(=O)c1Cc1ccccc1F,"inconclusive: 89.1 µM [inhibitor, single point]"
21,O=C(N/N=C/c1cccs1)c1ccc(-n2cccc2)cc1,"inconclusive: 70.8 µM [inhibitor, single point]"
22,O=c1cc(-c2ccc(O)cc2)oc2ccccc12,active: 28.2 µM
23,Cc1cc(C(=O)Nc2ccc(S(=O)(=O)N3CCCC3)cc2)no1,"inconclusive: 0.316 µM [inhibitor, full curve, poor fit]"

# Pulled by compound from the entries so far:
row,Compound,Potency
7,Cn1c(CCN2CCN(c3ccccn3)CC2)nc2cc(NS(=O)(=O)c3ccc(Cl)cc3)ccc21,"inconclusive: 0.141 µM [inhibitor, full curve, poor fit]"
12,CCOc1ccc(S(=O)(=O)NCCc2csc3nc(-c4cccc(C)c4)nn23)cc1,inactive
11,O=C(Cc1cccs1)Nc1ccc(N2CCOCC2)cc1,active: 25.1 µM
19,Cc1cc(C)c(OCC(=O)Nc2ccc(N3CCOCC3)cc2)c(Br)c1,"inconclusive: 0.794 µM [inhibitor, full curve, poor fit]"
